Measured values: US20120219506A1, “Catenae: Serosal Cancer Stem Cells” (SLOAN KETTERING INSTITUTE FOR CANCER RESEARCH, priority 2009, published 2012)
For at least one compound, name, drawing or mass did not settle the structure.

Tested on: catena cells
Test: Morphological effects on catena cells observed under the microscope
Format: cell-based, human
Description: When these cells were harvested and cultured in the absence of drugs, they re-entered the cell cycle.
These spheroids continued to grow in the presence of high concentrations of rapamycin (>50 uM) and retained their spheroid morphology.
The change in the cell-to-cell junctions might also be a resistance mechanism where cells activate signaling pathways by increasing cell-to-cell attachment or more tightly control transport of molecules between cells. […]

## CO[C@H]1C[C@@H]2CC[C@@H](C)[C@@](O)(O2)C(=O)C(=O)N2CCCC[C@H]2C(=O)O[C@H]([C@H](C)C[C@@H]2CC[C@@H](O)[C@H](OC)C2)CC(=O)[C@H](C)/C=C(\C)[C@@H](O)[C@@H](OC)C(=O)[C@H](C)C[C@H](C)/C=C/C=C/C=C/1C [rapamycin]
  morphological change of catenae on treatment: formed tight spheroids with demarcated edges
100 μM (rapamycin 25 μM, lovastatin acid 50 μM), cells arrested at mitosis, re-entered cell cycle without drug
  catena cells observed under the microscope in cultures treated with high concentrations: live, large single cells
